From paper PMC7282669, “The hydrophobic effect characterises the thermodynamic signature of amyloid fibril growth” (PLoS Computational Biology, 2020)
These are yes or no findings as the source states them, for the method shown. Some results given as binding are weak or reduced against the parent protein; the word gives no strength.

Legend:
[1] = molecular target: T1, Bovine α-lactalbumin (bovine), P00711; assay: chemical depolymerisation of amyloid fibrils (soluble protein by Bradford reagent); GndSCN; isodesmic linear polymerisation model; both purified; settings: remark: other sources report otherwise
T1 chain: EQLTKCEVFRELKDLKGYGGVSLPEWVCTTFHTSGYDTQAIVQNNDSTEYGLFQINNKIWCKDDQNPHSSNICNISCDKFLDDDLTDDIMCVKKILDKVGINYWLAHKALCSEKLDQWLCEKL

[2] = molecular target: T1, Bovine α-lactalbumin (bovine), P00711; assay: ITC; fibril elongation; monomer titrated into sonicated seed fibril suspension; VP-ITC; 10 mM HCl, 100 mM NaCl; monomer 100-350 μM; several temperatures; both purified; settings: remark: other sources report otherwise

B1: Bovine α-lactalbumin, P00711 20-142 (protein)
chain: EQLTKCEVFRELKDLKGYGGVSLPEWVCTTFHTSGYDTQAIVQNNDSTEYGLFQINNKIWCKDDQNPHSSNICNISCDKFLDDDLTDDIMCVKKILDKVGINYWLAHKALCSEKLDQWLCEKL
B1 was tested, and the binding [1] was “binds” and the binding [2] was “binds”.
